PubChem BioAssay AID743121, NCATS – 2013

Screen: 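Knock-downs that sensitise breast cancer cells to camptothecin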 (primary screen)
Cells: MDA-MB-231 cells, a human breast cancer line
Reagent: single siRNA against human genes, 20 nM siRNA (0.8 pmol per well)
Duration: 120 h (drug added 48 h after transfection, read 72 h later)
Treatment: camptothecin 20 nM (about EC30) for 72 h; vehicle 0.1% DMSO in parallel plates
Read-out: 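Cell viability by ATP luminescence (CellTiter-Glo) as % of non-targeting siRNA wells, and the log2 ratio of viability without drug over viability with camptothecin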
Direction: log2 vehicle/camptothecin viability: higher = stronger sensitisation to camptothecin; viability with camptothecin and viability without drug: higher = more viable cells
Active means: 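Active genes have an RSA gene-level p-value below 0.001, computed from the ratios of their separate siRNAs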
Here is a random part of about 26,000 reagents. In the full data, 167 (0.63%) got an active call. 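Calls are per gene from RSA p-values that are not deposited; an individual active-marked siRNA can sensitise only weakly.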 Unmarked entries are inactive. Reagents against one gene are numbered here.

gene | reagent | log2 vehicle/camptothecin viability | viability with camptothecin (% of control) | viability without drug (% of control)
MAG (GeneID 4099) | 1 | -0.0163 | 79.1 | 78.2
MAG (GeneID 4099) | 2 | -0.387 | 45.4 | 34.7
MAG (GeneID 4099) | 3 | 0.0102 | 103 | 104
MAG (GeneID 4099) | 4 | -0.252 | 54.5 | 45.7
COL9A1 (GeneID 1297) | 1 | -0.383 | 27.2 | 20.9
COL9A1 (GeneID 1297) | 2 | -0.387 | 71.9 | 55
COL9A1 (GeneID 1297) | 3 | 0.347 | 38.8 | 49.4
COL9A1 (GeneID 1297) | 4 | -0.00901 | 86.1 | 85.5
MAPKAPK3 (GeneID 7867) | 1 | -0.493 | 63.3 | 45
MAPKAPK3 (GeneID 7867) | 2 | 0.0367 | 82.2 | 84.3
MAPKAPK3 (GeneID 7867) | 3 | -0.0865 | 96 | 90.4
MAPKAPK3 (GeneID 7867) | 4 | -0.519 | 15.7 | 10.9
MYOC (GeneID 4653) | 1 | -0.084 | 102 | 96.3
MYOC (GeneID 4653) | 2 | 0.377 | 31.1 | 40.4
MYOC (GeneID 4653) | 3 | -0.0859 | 69.7 | 65.7
MYOC (GeneID 4653) | 4 | -0.327 | 85.8 | 68.5
GNGT2 (GeneID 2793) | 1 | 0.229 | 88.1 | 103
GNGT2 (GeneID 2793) | 2 | -0.136 | 95.1 | 86.5
GNGT2 (GeneID 2793) | 3 | 0.00338 | 66.4 | 66.6
GNGT2 (GeneID 2793) | 4 | -0.0949 | 92.6 | 86.7
VIPR1 (GeneID 7433) | 1 | 0.905 | 36.9 | 69.1
VIPR1 (GeneID 7433) | 2 | -0.5 | 65 | 46
VIPR1 (GeneID 7433) | 3 | 0.106 | 78 | 84
VIPR1 (GeneID 7433) | 4 | -0.176 | 95 | 84.1
PPP4R1 (GeneID 9989) | 1 | -0.276 | 56.9 | 46.9
PPP4R1 (GeneID 9989) | 2 | -0.353 | 49.9 | 39.1
PPP4R1 (GeneID 9989) | 3 | 0.0494 | 94.2 | 97.5
PPP4R1 (GeneID 9989) | 4 | -0.436 | 96.1 | 71
MYBPC3 (GeneID 4607) | 1 | -0.308 | 31.6 | 25.5
MYBPC3 (GeneID 4607) | 2 | 0.0201 | 47.5 | 48.2
MYBPC3 (GeneID 4607) | 3 | -0.0709 | 78.7 | 74.9
MYBPC3 (GeneID 4607) | 4 | 0.0407 | 82.2 | 84.5
PGRMC2 (GeneID 10424) | 1 | -0.272 | 88.1 | 72.9
PGRMC2 (GeneID 10424) | 2 | -0.0958 | 96.2 | 90
PGRMC2 (GeneID 10424) | 3 | -0.0942 | 108 | 101
PGRMC2 (GeneID 10424) | 4 | 0.263 | 65.8 | 79
GZMB (GeneID 3002) | 1 | -0.173 | 73.4 | 65.1
GZMB (GeneID 3002) | 2 | -0.129 | 81.9 | 74.9
GZMB (GeneID 3002) | 3 | -0.251 | 89.2 | 75
GZMB (GeneID 3002) | 4 | 0.546 | 67.2 | 98.1
MARCHF8 (GeneID 220972) | 1 | -0.362 | 86.6 | 67.4
MARCHF8 (GeneID 220972) | 2 | -0.154 | 87.6 | 78.8
MARCHF8 (GeneID 220972) | 3 | -0.00462 | 98.4 | 98.1
MARCHF8 (GeneID 220972) | 4 | -0.0564 | 95.6 | 91.9
IGSF21 (GeneID 84966) | 1 | 0.0512 | 44.9 | 46.6
IGSF21 (GeneID 84966) | 2 | -0.35 | 129 | 101
IGSF21 (GeneID 84966) | 3 | 0.00328 | 46.9 | 47
IGSF21 (GeneID 84966) | 4 | -0.00332 | 36.5 | 36.5
TBC1D22A (GeneID 25771) | 1 | -0.23 | 64.5 | 55
TBC1D22A (GeneID 25771) | 2 | 0.0318 | 7.12 | 7.28
TBC1D22A (GeneID 25771) | 3 | -0.188 | 107 | 94.2
TBC1D22A (GeneID 25771) | 4 | -0.315 | 90.7 | 72.9

In a second layout: results already given.
{"gene":"GNGT2 (GeneID 2793)","reagent":4,"log2 vehicle/camptothecin viability":-0.0949,"viability with camptothecin (% of control)":92.6,"viability without drug (% of control)":86.7}
{"gene":"VIPR1 (GeneID 7433)","reagent":1,"log2 vehicle/camptothecin viability":0.905,"viability with camptothecin (% of control)":36.9,"viability without drug (% of control)":69.1}
{"gene":"VIPR1 (GeneID 7433)","reagent":2,"log2 vehicle/camptothecin viability":-0.5,"viability with camptothecin (% of control)":65,"viability without drug (% of control)":46}
{"gene":"VIPR1 (GeneID 7433)","reagent":3,"log2 vehicle/camptothecin viability":0.106,"viability with camptothecin (% of control)":78,"viability without drug (% of control)":84}
{"gene":"VIPR1 (GeneID 7433)","reagent":4,"log2 vehicle/camptothecin viability":-0.176,"viability with camptothecin (% of control)":95,"viability without drug (% of control)":84.1}
{"gene":"PPP4R1 (GeneID 9989)","reagent":1,"log2 vehicle/camptothecin viability":-0.276,"viability with camptothecin (% of control)":56.9,"viability without drug (% of control)":46.9}
{"gene":"PPP4R1 (GeneID 9989)","reagent":2,"log2 vehicle/camptothecin viability":-0.353,"viability with camptothecin (% of control)":49.9,"viability without drug (% of control)":39.1}

Continued:
gene | reagent | log2 vehicle/camptothecin viability | viability with camptothecin (% of control) | viability without drug (% of control)
PPARD (GeneID 5467) | 1 | -0.475 | 84.7 | 61
PPARD (GeneID 5467) | 2 | -0.186 | 61.7 | 54.3
PPARD (GeneID 5467) | 3 | -0.486 | 68.9 | 49.2
TPTE2 (GeneID 93492) | 1 | -0.376 | 61.9 | 47.7
TPTE2 (GeneID 93492) | 2 | -0.294 | 75.8 | 61.8
TPTE2 (GeneID 93492) | 3 | 0.308 | 66.2 | 81.9
TPTE2 (GeneID 93492) | 4 | -0.553 | 87.8 | 59.9
OR10H2 (GeneID 26538) | 1 | -0.165 | 104 | 93
OR10H2 (GeneID 26538) | 2 | -0.104 | 76.2 | 70.9
OR10H2 (GeneID 26538) | 3 | -0.476 | 61.3 | 44.1
OR10H2 (GeneID 26538) | 4 | -0.446 | 85.3 | 62.6
GNA13 (GeneID 10672) | 1 | -0.235 | 96.9 | 82.4
GNA13 (GeneID 10672) | 2 | -0.125 | 55.1 | 50.5
GNA13 (GeneID 10672) | 3 | -0.756 | 75.5 | 44.7
WDR5B (GeneID 54554) | 1 | -0.137 | 103 | 94
WDR5B (GeneID 54554) | 2 | -0.311 | 54.4 | 43.8
WDR5B (GeneID 54554) | 3 | -0.103 | 62.9 | 58.6
WDR5B (GeneID 54554) | 4 | -0.229 | 91.1 | 77.7
SLC7A2 (GeneID 6542) | 1 | -0.0591 | 79.7 | 76.5
SLC7A2 (GeneID 6542) | 2 | -0.126 | 85.8 | 78.6
SLC7A2 (GeneID 6542) | 3 | 0.428 | 28.2 | 38
SLC7A2 (GeneID 6542) | 4 | -0.417 | 61.1 | 45.8
TAOK3 (GeneID 51347) | 1 | -0.505 | 94.1 | 66.3
TAOK3 (GeneID 51347) | 2 | -0.26 | 84.6 | 70.7
TAOK3 (GeneID 51347) | 3 | -0.14 | 100 | 90.9
TAOK3 (GeneID 51347) | 4 | -0.214 | 42.8 | 36.9
SETD1A (GeneID 9739) | 1 | 0.243 | 60.3 | 71.4
SETD1A (GeneID 9739) | 2 | -0.101 | 60.9 | 56.8
SETD1A (GeneID 9739) | 3 | -0.202 | 79.1 | 68.8
SETD1A (GeneID 9739) | 4 | 1.03 | 49 | 100
PMS2 (GeneID 5395) | 1 | -0.166 | 105 | 93.2
PMS2 (GeneID 5395) | 2 | -0.231 | 92.2 | 78.6
PMS2 (GeneID 5395) | 3 | -0.692 | 61.2 | 37.9
PMS2 (GeneID 5395) | 4 | -0.525 | 73.7 | 51.3
ZNF280B (GeneID 140883) | 1 | -0.219 | 62.8 | 53.9
ZNF280B (GeneID 140883) | 2 | -0.405 | 84.1 | 63.5
ZNF280B (GeneID 140883) | 3 | -0.259 | 110 | 92.2
ZNF280B (GeneID 140883) | 4 | -0.022 | 79.7 | 78.5
